Experimental findings from paper PMC5120300 are described below.

Protein sequences, listed by entry. Tags and fused reporters are not part of them. Residues count along the entry.
UniProt P12813: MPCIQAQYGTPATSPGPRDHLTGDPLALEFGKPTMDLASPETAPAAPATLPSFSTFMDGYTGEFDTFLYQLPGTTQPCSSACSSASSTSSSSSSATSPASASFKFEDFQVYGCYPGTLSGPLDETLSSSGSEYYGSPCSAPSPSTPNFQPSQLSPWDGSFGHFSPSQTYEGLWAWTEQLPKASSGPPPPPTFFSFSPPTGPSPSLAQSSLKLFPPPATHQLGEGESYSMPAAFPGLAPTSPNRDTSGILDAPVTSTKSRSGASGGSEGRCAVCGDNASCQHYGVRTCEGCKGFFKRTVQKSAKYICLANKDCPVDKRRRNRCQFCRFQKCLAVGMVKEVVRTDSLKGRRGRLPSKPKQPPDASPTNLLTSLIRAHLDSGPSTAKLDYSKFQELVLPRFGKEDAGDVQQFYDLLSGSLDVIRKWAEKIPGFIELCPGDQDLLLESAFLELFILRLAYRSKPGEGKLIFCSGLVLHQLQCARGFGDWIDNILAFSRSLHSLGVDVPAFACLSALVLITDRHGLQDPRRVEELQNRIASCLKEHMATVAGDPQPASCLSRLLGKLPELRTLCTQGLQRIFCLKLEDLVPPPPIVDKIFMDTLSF
UniProt Q01097, residues 27-1482: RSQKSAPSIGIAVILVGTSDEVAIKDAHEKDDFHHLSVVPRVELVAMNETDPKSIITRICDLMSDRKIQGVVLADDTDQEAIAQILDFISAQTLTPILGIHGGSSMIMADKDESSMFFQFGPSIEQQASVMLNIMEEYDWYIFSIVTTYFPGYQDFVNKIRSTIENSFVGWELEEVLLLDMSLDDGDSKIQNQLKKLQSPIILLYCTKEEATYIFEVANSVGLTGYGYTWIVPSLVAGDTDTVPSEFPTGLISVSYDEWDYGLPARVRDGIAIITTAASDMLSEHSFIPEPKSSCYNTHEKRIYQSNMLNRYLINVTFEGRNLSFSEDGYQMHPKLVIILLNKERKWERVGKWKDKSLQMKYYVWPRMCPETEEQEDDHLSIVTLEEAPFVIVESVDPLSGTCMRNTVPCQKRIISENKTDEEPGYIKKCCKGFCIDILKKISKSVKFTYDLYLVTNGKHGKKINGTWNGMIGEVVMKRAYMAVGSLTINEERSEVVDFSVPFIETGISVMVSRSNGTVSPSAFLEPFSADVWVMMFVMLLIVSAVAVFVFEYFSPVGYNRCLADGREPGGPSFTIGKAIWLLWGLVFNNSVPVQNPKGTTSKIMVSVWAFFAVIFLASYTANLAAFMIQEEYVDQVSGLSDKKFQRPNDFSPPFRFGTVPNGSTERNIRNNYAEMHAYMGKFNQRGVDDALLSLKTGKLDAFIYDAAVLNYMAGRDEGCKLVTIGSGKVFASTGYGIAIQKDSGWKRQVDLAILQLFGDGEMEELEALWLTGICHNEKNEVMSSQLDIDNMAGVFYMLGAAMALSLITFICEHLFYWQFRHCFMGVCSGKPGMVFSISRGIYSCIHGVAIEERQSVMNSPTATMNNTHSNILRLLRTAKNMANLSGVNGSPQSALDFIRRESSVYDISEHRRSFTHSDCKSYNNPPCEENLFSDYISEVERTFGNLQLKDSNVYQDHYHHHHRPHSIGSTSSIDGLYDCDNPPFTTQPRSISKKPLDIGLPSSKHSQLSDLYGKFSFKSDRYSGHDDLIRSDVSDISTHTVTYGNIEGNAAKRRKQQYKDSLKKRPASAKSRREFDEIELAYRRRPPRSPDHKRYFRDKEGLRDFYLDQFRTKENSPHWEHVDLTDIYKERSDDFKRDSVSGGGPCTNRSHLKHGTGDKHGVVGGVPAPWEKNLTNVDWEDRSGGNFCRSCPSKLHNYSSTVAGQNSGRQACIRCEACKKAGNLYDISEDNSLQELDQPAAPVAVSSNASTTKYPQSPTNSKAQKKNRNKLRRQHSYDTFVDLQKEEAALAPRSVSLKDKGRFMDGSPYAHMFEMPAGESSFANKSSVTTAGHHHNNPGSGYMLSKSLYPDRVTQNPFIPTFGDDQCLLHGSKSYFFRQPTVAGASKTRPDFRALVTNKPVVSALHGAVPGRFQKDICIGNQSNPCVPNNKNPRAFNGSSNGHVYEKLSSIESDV

In assay [1] the target is Nuclear receptor subfamily 4 group A member 1 (mouse (endogenous in hippocampal tissue)) (UniProt P12813). In words: co-IP; protein extracts of mouse hippocampal tissues in IP lysis buffer; anti-NR4A1 or anti-NR2B antibody (rabbit IgG as control) overnight at 4 °C, protein A/G agarose beads 2 h at 4 °C, five washes, Western blot. (In general: A western blot detects proteins with antibodies after separation by electrophoresis.)

In assay [2] the target is NR2B (mouse (endogenous in hippocampal tissue)) (UniProt Q01097). The assay is described as above.

These are yes or no findings as the source states them, for the method shown. In cells and extracts the contact can be indirect. Some binding calls cover weakened binding; strength is not graded here.

With NR2B (from UniProt Q01097 27-1482), the binding result in assay [1] was “binds”.
Regarding “Nuclear receptor subfamily 4 group A member 1 (from UniProt P12813 1-601)”, the binding result in assay [2] is on record as “binds”.
